According to paper PMC7045607:
Results are given in words; binding and its absence hold for the method and conditions named. In cells and extracts the contact can be indirect. Some results given as binding are weak or reduced against the parent protein; the word gives no strength.

Amino acid sequences for entries named in this document (tags omitted). Residues count along the entry.
UniProt P30405, residues 30-207: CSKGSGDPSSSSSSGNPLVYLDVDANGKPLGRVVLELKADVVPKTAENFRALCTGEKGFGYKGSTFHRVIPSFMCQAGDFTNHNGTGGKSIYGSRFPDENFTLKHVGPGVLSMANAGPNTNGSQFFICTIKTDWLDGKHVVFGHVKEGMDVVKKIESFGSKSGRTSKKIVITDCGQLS

Target: cyclophilin-D (human (endogenous in T-HESC)) (UniProt P30405)
Assay: co-IP; mitochondrial immunoprecipitation (Mito-IP): mitochondrial fraction lysates of T-HESC cells (300 ug per treatment), pre-cleared, incubated with anti-CypD antibody, captured by anti-IgG; CypD-bound ANT1 and p53 by Western blotting; cells after OGD 4 h and re-oxygenation (OGDR) or Mock, with lv-pre-miR-941, lv-miRC, antagomiR-941 or antaC

B1: adenine nucleotide translocator type 1 (protein, UniProt P12235 1-298)
chain: MGDHAWSFLKDFLAGGVAAAVSKTAVAPIERVKLLLQVQHASKQISAEKQYKGIIDCVVRIPKEQGFLSFWRGNLANVIRYFPTQALNFAFKDKYKQLFLGGVDRHKQFWRYFAGNLASGGAAGATSLCFVYPLDFARTRLAADVGKGAAQREFHGLGDCIIKIFKSDGLRGLYQGFNVSVQGIIIYRAAYFGVYDTAKGMLPDPKNVHIFVSWMIAQSVTAVAGLVSYPFDTVRRRMMMQSGRKGADIMYTGTVDCWRKIAKDEGAKAFFKGAWSNVLRGMGGAFVLVLYDEIKKYV
With B1 the binding was “binds”.
